Among the data in publication PMC6109146 are binding values, retold here.

Protein sequences, listed by entry. Tags and fused reporters are not part of them.
UniProt Q04207: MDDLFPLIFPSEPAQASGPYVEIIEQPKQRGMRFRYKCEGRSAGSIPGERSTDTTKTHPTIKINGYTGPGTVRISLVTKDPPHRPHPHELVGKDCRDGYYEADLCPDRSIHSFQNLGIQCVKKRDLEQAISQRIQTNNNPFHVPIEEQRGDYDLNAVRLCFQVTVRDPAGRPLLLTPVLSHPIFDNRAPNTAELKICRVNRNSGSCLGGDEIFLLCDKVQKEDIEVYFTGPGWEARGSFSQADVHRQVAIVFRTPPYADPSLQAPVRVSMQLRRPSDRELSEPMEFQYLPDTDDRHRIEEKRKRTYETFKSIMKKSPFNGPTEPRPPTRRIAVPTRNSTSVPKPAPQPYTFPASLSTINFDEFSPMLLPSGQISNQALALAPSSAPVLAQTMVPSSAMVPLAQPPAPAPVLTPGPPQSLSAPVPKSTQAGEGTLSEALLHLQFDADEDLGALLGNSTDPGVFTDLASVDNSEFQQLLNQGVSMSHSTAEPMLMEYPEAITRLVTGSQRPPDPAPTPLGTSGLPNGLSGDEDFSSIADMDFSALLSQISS

For the assay, the target named is T1, SIN3 transcription regulator family member A (UniProt Q60520).
T1 sequence: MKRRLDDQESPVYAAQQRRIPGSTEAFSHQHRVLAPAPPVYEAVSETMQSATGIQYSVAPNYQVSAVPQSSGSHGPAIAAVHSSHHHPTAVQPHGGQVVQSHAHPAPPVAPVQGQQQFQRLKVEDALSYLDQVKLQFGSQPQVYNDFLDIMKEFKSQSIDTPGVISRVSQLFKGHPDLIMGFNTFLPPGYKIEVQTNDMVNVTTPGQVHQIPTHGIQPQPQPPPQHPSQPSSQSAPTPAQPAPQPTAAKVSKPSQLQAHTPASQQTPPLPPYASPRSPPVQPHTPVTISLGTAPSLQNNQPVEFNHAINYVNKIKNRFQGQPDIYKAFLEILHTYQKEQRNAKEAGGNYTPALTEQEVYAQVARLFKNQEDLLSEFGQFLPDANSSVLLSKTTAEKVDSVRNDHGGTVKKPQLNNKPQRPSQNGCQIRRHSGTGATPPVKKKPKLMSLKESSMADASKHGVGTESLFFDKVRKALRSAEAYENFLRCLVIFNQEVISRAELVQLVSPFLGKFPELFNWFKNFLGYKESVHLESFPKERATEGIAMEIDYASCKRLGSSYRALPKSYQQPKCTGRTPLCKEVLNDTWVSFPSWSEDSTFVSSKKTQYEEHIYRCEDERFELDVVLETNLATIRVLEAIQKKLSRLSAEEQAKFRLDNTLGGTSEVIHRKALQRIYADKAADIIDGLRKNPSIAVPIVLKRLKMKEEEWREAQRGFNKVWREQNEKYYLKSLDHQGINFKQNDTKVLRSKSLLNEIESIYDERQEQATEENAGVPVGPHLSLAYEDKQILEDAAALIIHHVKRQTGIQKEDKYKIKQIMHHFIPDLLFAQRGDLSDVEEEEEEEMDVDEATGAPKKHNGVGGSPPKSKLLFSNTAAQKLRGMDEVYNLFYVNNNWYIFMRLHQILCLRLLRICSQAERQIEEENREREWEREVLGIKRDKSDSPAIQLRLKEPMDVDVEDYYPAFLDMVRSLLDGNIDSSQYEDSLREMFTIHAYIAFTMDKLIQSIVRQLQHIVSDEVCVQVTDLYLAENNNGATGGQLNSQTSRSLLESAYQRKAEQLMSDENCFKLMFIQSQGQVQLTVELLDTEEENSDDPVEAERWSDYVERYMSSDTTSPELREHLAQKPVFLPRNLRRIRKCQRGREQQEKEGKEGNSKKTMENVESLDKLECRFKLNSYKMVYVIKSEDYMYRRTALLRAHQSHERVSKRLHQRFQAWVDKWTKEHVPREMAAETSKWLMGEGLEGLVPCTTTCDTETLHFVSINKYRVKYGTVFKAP
The experiment in a line: co-IP; no method section for this experiment; the author contributions say that co-immunoprecipitations were performed; cells, bait and conditions not told (Supplementary Fig. 5E).

These are yes or no findings as the source states them, for the method shown. In cells and extracts the contact can be indirect. Some binding calls cover weakened binding; strength is not graded here.

p65 (from UniProt Q04207 1-549): the binding result is listed as “binds”.
